Results from patent US9522942B2, “Analogs of temporin-SHa and uses thereof” (UNIVERSITE PIERRE ET MARIE CURIE (PARIS 6), priority 2009, dated 2016).
Part of at least one peptide drawing is inferred or uncertain, most often the ends. Ends that are not written are not given here.

Legend:
[1] = test system: Leishmania infantum promastigotes; conditions: Abbassi et al., 2008, read-out: IC50, promastigote form; cited from earlier work
[2] = test system: Leishmania infantum axenic amastigotes; conditions: Abbassi et al., 2008, read-out: IC50, axenic amastigote form; cited from earlier work
[3] = test system: Leishmania infantum axenic amastigotes; test: Anti-Leishmania activity on axenic amastigotes (luciferase); assay type: cell-based; conditions: 72 hours at 37° C. (FIG. 2 A)
[4] = test system: Pseudomonas aeruginosa (ATCC 27853); test: Growth inhibition test in broth medium (MIC); assay type: cell-based; conditions: fold higher than temporin-SHa

Substance	IC50 [1]	IC50 [2]	Activity against axenic amastigotes [3]	Antibacterial activity against Pseudomonas aeruginosa relative to temporin-SHa [4]
FLSGIVGMLGKLF-NH2 [temporin-SHa, F-L-S-G-I-V-G-M-L-G-K-L-F]	18.1 µM	22.8 µM	active	
FLKGIVGMLGKLF-NH2 [[K^3]temporin-SHa]			active	10 times
